Assay [1] has as its target T1, Cav1.2 (Homo sapiens, UniProt Q13936).
T1 construct: expressed in transfected cells; host or cells: HEK-293T
Format: cell-based. Here is the method: HEK-293T (RRID:CVCL_2737) were obtained from the European Collection of Authenticated Cell Cultures (ECACC 96121229). The identity of HEK-293T has been confirmed by STR profiling and the cells have been eradicated from mycoplasma at ECACC. We routinely tested the cells for the absence of the mycoplasma contamination. Cells were cultivated at 37 °C in DMEM supplemented with GlutaMax, 10% fetal bovine serum and 1% penicillin/streptomycin (Invitrogen, Fisher Scientific, France). Transfections were performed using jet-PEI (Ozyme, France) with a DNA mix containing either the plasmids that code for Cav1.2-GFP, β2a and α2δ (0.8 µg of each) or either the plasmids that code for Cav1.3 (with and without exon 42a), or Cav2.1, or either Cav2.2 combined with β2a and α2δ (0.8 µg of each supplemented with 0.025 µg of a plasmid coding for GFP). For Cav3.1 expression β2a and α2δ subunits were omitted. Plasmids coding for β2a, α2δ and Cav1.3 were created as described previously. […]
Macroscopic currents in HEK-293T cells were recorded at room temperature using an Axopatch 200B or Multiclamp 700B patchclamp amplifier (Molecular Devices, Sunnyvale CA). […]
In all experiments of cellular electrophysiology, we employed synthetized analog of Cas, commercially available at Latoxan (ID: L8109). […] Its measured molecular mass (7036.26 Da average) was in accordance with the mass calculated from sequence data (7036.22 Da).

The chains behind the UniProt entries cited, without tags or fusion partners.
UniProt Q13936, whole entry: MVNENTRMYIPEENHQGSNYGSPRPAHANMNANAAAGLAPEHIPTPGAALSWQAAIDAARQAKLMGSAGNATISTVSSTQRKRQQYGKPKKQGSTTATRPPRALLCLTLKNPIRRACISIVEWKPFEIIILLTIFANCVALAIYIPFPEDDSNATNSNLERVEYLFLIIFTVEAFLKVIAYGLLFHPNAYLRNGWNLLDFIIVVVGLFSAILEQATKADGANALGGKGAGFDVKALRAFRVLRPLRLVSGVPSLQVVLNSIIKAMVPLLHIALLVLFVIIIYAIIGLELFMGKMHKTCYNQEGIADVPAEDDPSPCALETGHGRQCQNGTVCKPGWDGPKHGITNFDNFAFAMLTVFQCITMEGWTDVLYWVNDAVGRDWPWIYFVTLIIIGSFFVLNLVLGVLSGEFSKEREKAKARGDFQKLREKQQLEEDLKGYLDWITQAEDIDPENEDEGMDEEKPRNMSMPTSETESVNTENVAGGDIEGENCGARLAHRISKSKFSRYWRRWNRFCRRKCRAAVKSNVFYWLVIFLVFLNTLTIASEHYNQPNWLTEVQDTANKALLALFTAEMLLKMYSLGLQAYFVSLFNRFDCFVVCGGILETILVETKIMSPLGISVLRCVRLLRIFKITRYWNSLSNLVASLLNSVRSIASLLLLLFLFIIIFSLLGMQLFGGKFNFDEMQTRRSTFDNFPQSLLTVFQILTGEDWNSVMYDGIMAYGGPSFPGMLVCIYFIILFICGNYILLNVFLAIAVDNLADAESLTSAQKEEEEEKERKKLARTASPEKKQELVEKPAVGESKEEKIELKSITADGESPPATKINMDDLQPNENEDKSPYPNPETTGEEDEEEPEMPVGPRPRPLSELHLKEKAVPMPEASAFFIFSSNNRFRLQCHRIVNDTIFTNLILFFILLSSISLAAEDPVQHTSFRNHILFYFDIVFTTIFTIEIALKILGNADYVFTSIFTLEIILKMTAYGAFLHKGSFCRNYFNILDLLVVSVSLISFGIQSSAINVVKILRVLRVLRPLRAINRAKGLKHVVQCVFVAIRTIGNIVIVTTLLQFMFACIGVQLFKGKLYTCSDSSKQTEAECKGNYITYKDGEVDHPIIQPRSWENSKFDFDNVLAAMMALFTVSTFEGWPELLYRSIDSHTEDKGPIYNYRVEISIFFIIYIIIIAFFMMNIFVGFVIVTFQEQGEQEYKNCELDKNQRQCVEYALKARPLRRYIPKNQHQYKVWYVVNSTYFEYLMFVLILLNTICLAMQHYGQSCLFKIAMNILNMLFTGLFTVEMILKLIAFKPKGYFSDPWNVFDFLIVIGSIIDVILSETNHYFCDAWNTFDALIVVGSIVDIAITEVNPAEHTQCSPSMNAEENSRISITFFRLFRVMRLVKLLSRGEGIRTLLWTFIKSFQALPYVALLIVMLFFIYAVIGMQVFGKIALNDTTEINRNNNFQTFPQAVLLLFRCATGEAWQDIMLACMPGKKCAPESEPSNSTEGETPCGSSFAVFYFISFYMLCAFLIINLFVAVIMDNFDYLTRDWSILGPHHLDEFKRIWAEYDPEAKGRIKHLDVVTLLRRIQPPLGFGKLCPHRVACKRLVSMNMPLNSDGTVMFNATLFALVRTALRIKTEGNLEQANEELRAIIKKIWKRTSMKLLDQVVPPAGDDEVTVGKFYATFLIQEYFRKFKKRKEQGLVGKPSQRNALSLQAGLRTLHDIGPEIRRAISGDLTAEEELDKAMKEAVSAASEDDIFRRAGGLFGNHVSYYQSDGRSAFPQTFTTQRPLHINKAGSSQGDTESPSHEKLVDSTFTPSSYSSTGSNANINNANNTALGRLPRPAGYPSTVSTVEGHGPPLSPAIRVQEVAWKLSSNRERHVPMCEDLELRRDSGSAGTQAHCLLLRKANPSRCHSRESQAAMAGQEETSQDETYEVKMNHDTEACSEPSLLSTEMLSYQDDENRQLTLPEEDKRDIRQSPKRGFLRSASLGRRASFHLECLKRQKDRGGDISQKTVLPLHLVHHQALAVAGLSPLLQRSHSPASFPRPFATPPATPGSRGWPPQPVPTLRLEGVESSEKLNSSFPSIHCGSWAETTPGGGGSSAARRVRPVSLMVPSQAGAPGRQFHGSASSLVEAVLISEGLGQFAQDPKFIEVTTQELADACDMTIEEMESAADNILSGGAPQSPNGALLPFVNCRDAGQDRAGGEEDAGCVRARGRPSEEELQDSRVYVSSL

Assay [2] deals with Cav1.2 (ICav1.2) in isolated adult mouse ventricular myocytes. Format: cell-based.

Results on one compound are retold here after paper PMC10762068, “Selective blockade of Cav1.2 (α1C) versus Cav1.3 (α1D) L-type calcium channels by the black mamba toxin calciseptine” (Nature Communications, 2024).

Each structure is given as a SMILES string.

Turning to `COC(=O)C1=C(C)NC(C)=C(C(=O)OC)C1c1ccccc1[N+](=O)[O-]` [nifedipine, reference compound], the “inhibition of ICav1.2 elicited at +150 mV” value in assay [1] is “partially inhibited”. Moreover, in assay [2], the “block of residual Ca2+ current by nifedipine after Cas” value is “blocked residual Ca^2+ current” and the “effect of nifedipine after Cas 1 µM” value was “failed to have an effect”.
